Source: PubChem BioAssay AID743121 (NCATS, 2013)

Screen: 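Partners whose loss is lethal together with topoisomerase I blockade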 (primary screen)
Cell system: MDA-MB-231 cells, a human breast cancer line
Knock-down reagent: single siRNA against human genes, 20 nM siRNA (0.8 pmol per well)
Duration: 120 h (drug added 48 h after transfection, read 72 h later)
Treatment: camptothecin 20 nM (about EC30) for 72 h; vehicle 0.1% DMSO in parallel plates
Measured: 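Cell viability by ATP luminescence (CellTiter-Glo) as % of non-targeting siRNA wells, and the log2 ratio of viability without drug over viability with camptothecin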
Direction: log2 vehicle/camptothecin viability: higher = stronger sensitisation to camptothecin
Call rule: 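Each gene scored by redundant siRNA activity (RSA) over its individual siRNA ratios; a gene is called active at p < 0.001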
In all, the deposit lists about 26,000 reagents; below is a random part of them. Over the whole deposit, 167 (0.63%) are marked active. 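Calls are per gene from RSA p-values that are not deposited; an individual active-marked siRNA can sensitise only weakly.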 Reagents against one gene are numbered here. Not all columns of the deposit are shown.

| gene symbol | reagent no. | log2 vehicle/camptothecin viability | call |
| --- | --- | --- | --- |
| SHROOM1 (GeneID 134549) | 1 | -0.133 | inactive |
| SHROOM1 (GeneID 134549) | 2 | -0.204 | inactive |
| SHROOM1 (GeneID 134549) | 3 | -0.21 | inactive |
| SHROOM1 (GeneID 134549) | 4 | 0.455 | inactive |
| CASP3 (GeneID 836) | 1 | -0.134 | inactive |
| CASP3 (GeneID 836) | 2 | -0.964 | inactive |
| CASP3 (GeneID 836) | 3 | -0.111 | inactive |
| CASP3 (GeneID 836) | 4 | -0.243 | inactive |
| TRIM67 (GeneID 440730) | 1 | -0.226 | inactive |
| TRIM67 (GeneID 440730) | 2 | 0.401 | inactive |
| TRIM67 (GeneID 440730) | 3 | 0.00593 | inactive |
| TRIM67 (GeneID 440730) | 4 | -0.175 | inactive |
| ESRRG (GeneID 2104) | 1 | 0.147 | inactive |
| ESRRG (GeneID 2104) | 2 | -0.173 | inactive |
| ESRRG (GeneID 2104) | 3 | 0.341 | inactive |
| ALKBH8 (GeneID 91801) | 1 | -0.437 | inactive |
| ALKBH8 (GeneID 91801) | 2 | 0.185 | inactive |
| ALKBH8 (GeneID 91801) | 3 | -0.66 | inactive |
| ALKBH8 (GeneID 91801) | 4 | -0.253 | inactive |
| SEZ6L (GeneID 23544) | 1 | 0.101 | inactive |
| SEZ6L (GeneID 23544) | 2 | -0.156 | inactive |
| SEZ6L (GeneID 23544) | 3 | -0.21 | inactive |
| SEZ6L (GeneID 23544) | 4 | -0.449 | inactive |
| TPCN1 (GeneID 53373) | 1 | 0.305 | inactive |
| TPCN1 (GeneID 53373) | 2 | -0.203 | inactive |
| TPCN1 (GeneID 53373) | 3 | -0.283 | inactive |
| TPCN1 (GeneID 53373) | 4 | -0.0299 | inactive |
| TTBK2 (GeneID 146057) | 1 | 0.0894 | inactive |
| TTBK2 (GeneID 146057) | 2 | -0.539 | inactive |
| TTBK2 (GeneID 146057) | 3 | 0.0174 | inactive |
| TTBK2 (GeneID 146057) | 4 | -0.736 | inactive |
| PROK2 (GeneID 60675) | 1 | -0.291 | inactive |
| PROK2 (GeneID 60675) | 2 | 0.0335 | inactive |
| PROK2 (GeneID 60675) | 3 | -0.295 | inactive |
| PROK2 (GeneID 60675) | 4 | -0.24 | inactive |
| PDCD1 (GeneID 5133) | 1 | 0.264 | inactive |
| PDCD1 (GeneID 5133) | 2 | 0.275 | inactive |
| PDCD1 (GeneID 5133) | 3 | -0.106 | inactive |
| PDCD1 (GeneID 5133) | 4 | -0.671 | inactive |
| OLFML2A (GeneID 169611) | 1 | -0.143 | inactive |
| OLFML2A (GeneID 169611) | 2 | -0.132 | inactive |
| OLFML2A (GeneID 169611) | 3 | -0.0847 | inactive |
| OLFML2A (GeneID 169611) | 4 | 0.0216 | inactive |
| DLK1 (GeneID 8788) | 1 | -0.0769 | inactive |
| DLK1 (GeneID 8788) | 2 | -0.349 | inactive |
| DLK1 (GeneID 8788) | 3 | -0.255 | inactive |
| TRPM3 (GeneID 80036) | 1 | -0.0645 | inactive |
| TRPM3 (GeneID 80036) | 2 | -0.358 | inactive |
| TRPM3 (GeneID 80036) | 3 | -0.186 | inactive |
| TRPM3 (GeneID 80036) | 4 | 0.321 | inactive |
| FOXD2 (GeneID 2306) | 1 | 0.16 | inactive |
| FOXD2 (GeneID 2306) | 2 | -0.228 | inactive |
| FOXD2 (GeneID 2306) | 3 | -0.495 | inactive |
| FOXD2 (GeneID 2306) | 4 | -0.56 | inactive |
| E2F2 (GeneID 1870) | 1 | 0.376 | inactive |
| E2F2 (GeneID 1870) | 2 | -0.646 | inactive |
| E2F2 (GeneID 1870) | 3 | -0.0916 | inactive |
| MOCS3 (GeneID 27304) | 1 | -0.122 | inactive |
| MOCS3 (GeneID 27304) | 2 | 0.352 | inactive |
| MOCS3 (GeneID 27304) | 3 | -0.0616 | inactive |
| PTS (GeneID 5805) | 1 | 0.0923 | inactive |
| PTS (GeneID 5805) | 2 | 0.0194 | inactive |
| PTS (GeneID 5805) | 3 | -0.354 | inactive |
| FEV (GeneID 54738) | 1 | -0.15 | inactive |
| FEV (GeneID 54738) | 2 | -0.446 | inactive |
| FEV (GeneID 54738) | 3 | -0.0309 | inactive |
| FEV (GeneID 54738) | 4 | -0.515 | inactive |
| PEX6 (GeneID 5190) | 1 | -0.164 | inactive |
| PEX6 (GeneID 5190) | 2 | -0.218 | inactive |
| PEX6 (GeneID 5190) | 3 | -0.438 | inactive |
| PEX6 (GeneID 5190) | 4 | -0.475 | inactive |

8 entries from above, arranged by “log2 vehicle/camptothecin viability”, ascending:
| gene symbol | reagent no. | log2 vehicle/camptothecin viability | call |
| --- | --- | --- | --- |
| FEV (GeneID 54738) | 2 | -0.446 | inactive |
| PTS (GeneID 5805) | 3 | -0.354 | inactive |
| FEV (GeneID 54738) | 1 | -0.15 | inactive |
| MOCS3 (GeneID 27304) | 3 | -0.0616 | inactive |
| FEV (GeneID 54738) | 3 | -0.0309 | inactive |
| PTS (GeneID 5805) | 2 | 0.0194 | inactive |
| PTS (GeneID 5805) | 1 | 0.0923 | inactive |
| MOCS3 (GeneID 27304) | 2 | 0.352 | inactive |
